Assay results from US6767708B1, “Stabilized aqueous steroid immunoassay standards” (Abbott Laboratories, priority 1994, dated 2004).
For at least one compound, name, drawing or mass did not settle the structure.

Tests used:
Assay type in all cases: physicochemical
[1] = Stability of estradiol in 5% BSA matrix stressed at 37° C. (percent loss by IMx Estradiol immunoassay); details: after 28 days
[2] = Stability of estradiol in alkaline shocked charcoal stripped human serum stressed at 37° C. (percent loss by IMx Estradiol immunoassay); details: 750 pg/mL estradiol in alkaline shocked charcoal stripped human serum, after 28 days
[3] = Stability of progesterone in charcoal stripped human serum stressed at 37° C. (percent loss by IMx Progesterone immunoassay); details: days 0, 3, 8, 15 and 29, FIG. 1

C[C@]12CC[C@@H]3c4ccc(O)cc4CC[C@H]3[C@@H]1CC[C@@H]2O [estradiol]
Percent loss of estradiol ([1]; 750 pg/mL estradiol in 5% BSA matrix pH 8, 20 mM DETP): almost no loss
Percent loss of estradiol ([1]; 750 pg/mL estradiol in 5% BSA matrix pH 8, no added DETP): over 10%
Percent loss of estradiol ([2]; 10 mM DETP): almost no loss
Percent loss of estradiol ([2]; no added DETP): over 20%

CC(=O)N(O)CCCCCNC(=O)CCC(=O)N(O)CCCCCNC(=O)CCC(=O)N(O)CCCCCN [Deferoxamine]
Reduction in % loss of progesterone over time by addition of chelator compared to no added reagent [3]: reduction in % loss
